How the values were obtained:
[1] = test system: TPA-induced epidermal hyperplasia; test: Inhibition of TPA-induced epidermal hyperplasia (epidermal thickness) on back skin of mice; format: in vivo, BALB/c mice; settings: Hill coefficient; means ± SD
Method: (§1) The mice were housed in stainless steel cages, 6 mice per cage under normal laboratory conditions (room temperature at about 22° C.) at least 7 days before the experiments for acclimatization. Food and water were allowed ad libitum throughout the experiment period. The backs of the mice were shaved with an electric clipper two days before each treatment and only those mice showing no hair regrowth were used (i.e., the mice in the resting phase of the hair growth cycle were selected). During treatment, the mice were held with their tails and put on top of the cage so that they grasped the cage and rested there. The solutions were applied to an area approximately 2 cm×2 cm on the shaved back of the mice by using a “Pipetman” to apply the solution. If auranofin ointment or ointment base was applied, the amount was standardized by using a microspatula which was crimped at one end, the ointment was then put into the ridge and the excess removed by means of another microspatula and applied sparingly twice a day. After a fixed time, the mice were killed routinely by cervical dislocation between 9 a.m. and 11 a.m. to avoid variations due to circadian rhythms, and an area (1 cm×1 cm) was excised from the centre of the treated area by scalpel and scissors. The rest of the tissues were disposed by combustion. The tissues were then fixed, embedded, sectioned and stained.
Epidermal thickness was determined by image analysis. This image analysis system was a minicomputer (Tracor Northern TN8500) attached to a light microscope (Zeiss Axioplan) and a camcorder (Sony DXC-3000P). Sections were taken from each tissue block and 20 measurements were taken at fixed intervals from each section. The average value for the 20 measurements was obtained and entered as one value for each mouse. The mean and SEM for the six mice in each treatment group were calculated.
(§2) The percent inhibition of drug on TPA-induced skin responses (i.e., epidermal hyperplasia, inflammatory cell infiltration and skin-fold thickness) was calculated by using the following formula: [formula]
(§3) This provides estimates of (a) the potency, (b) the efficacy or maximum effect (Emax) and the slope of the log concentration-response curve by using Hill coefficient (γ). The Hill Equation may be expressed as follows: [formula] where IC50 is the drug concentration producing 50% of the maximal response and Emax refers to the maximal effect produced by the drug and is also termed efficacy. Efficacy is the measurement of the intrinsic ability of a drug to initiate a response once it occupies receptor sites. […] The Hill coefficient (γ) measures the slope of the dose-effect curve which can be markedly influenced by the shape of the curve that describes the binding of the drug to the receptor. For many drugs, y lies between 0.6 and 1.5. […] On the other hand, when γ is less than 1, with a shallow hyperbolic concentration effect relationship, the activity occurs over a wide range of drug levels.
(§4) In the present study, concentration-response curves were obtained for a series of corticosteroids. In these experiments, curve fitting was accomplished using a computer programme called “The Scientist” (MicroMath Scientific Software, Salt Lake City, Utah, USA.) in which the parameters, Emax, IC50 and Hill coefficient (γ) for each steroids were estimated by using non-linear regression and least square fits.
Mice were divided into treatment groups. TPA and corticosteroids were premixed to the concentrations required and applied to the backs of mice immediately. For those steroids not very soluble in acetone (i.e., betamethasone, dexamethasone, hydrocortisone and hydrocortisone acetate), the drugs were dissolved in 100 μL dimethylformamide before further dilution with acetone. The efficacy of corticosteroids in inhibiting epidermal hyperplasia, inflammatory cell infiltration and skin-fold thickness was assessed as described previously. Concentration-response curves were determined after computer-fitting of data.

[2] = test system: TPA-induced inflammatory cell infiltration into the dermis; test: Inhibition of TPA-induced inflammatory cell infiltration into the dermis of mice; format: in vivo, BALB/c mice; settings: Hill coefficient; means ± SD
Method: as §1
Infiltration of inflammatory cells was determined by the same image analysis system using the section taken from the block of mouse skin embedded in paraffin wax or Spurr's resin and stained with haematoxylin and eosin or toluidine blue respectively. For each section, 10 fields, unless otherwise stated, were chosen randomly and the cell density per mm^2 of field determined. The average value for the 10 fields was obtained and entered as one value for each mouse. The mean and SEM for the six mice in each treatment group were calculated.
The measurement of the inflammatory cell infiltration included the background values which included other materials in the dermis stained in the same way.
as §2, §3, §4
Mice were divided into treatment groups. TPA and corticosteroids were premixed to the concentrations required and applied to the backs of mice immediately.

Structure (SMILES): CC(=O)OCC(=O)[C@@]1(O)CC[C@H]2[C@@H]3CCC4=CC(=O)CC[C@]4(C)[C@H]3[C@@H](O)C[C@@]21C [Hydrocortisone acetate, hydrocortisone acetate]
- Gamma (γ) [1]: 0.79 ± 0.13
- Gamma (γ) [2]: 1.11 ± 0.27

Structure (SMILES): C[C@@H]1C[C@H]2[C@@H]3CCC4=CC(=O)C=C[C@]4(C)[C@@]3(Cl)[C@@H](O)C[C@]2(C)[C@@]1(OC(=O)c1ccco1)C(=O)CCl [Mometasone furoate, mometasone furoate]
- Gamma (γ) [1]: 0.79 ± 0.11
- Gamma (γ) [2]: 0.69 ± 0.14

Structure (SMILES): CC1(C)O[C@@H]2C[C@H]3[C@@H]4CCC5=CC(=O)CC[C@]5(C)[C@@]4(F)[C@@H](O)C[C@]3(C)[C@]2(C(=O)CCl)O1 [Halcinonide]
- Gamma (γ) [1]: 0.78 ± 0.06
- Gamma (γ) [2]: 0.60 ± 0.11

Structure (SMILES): CCCCC(=O)O[C@]1(C(=O)CO)[C@@H](C)C[C@H]2[C@@H]3CCC4=CC(=O)C=C[C@]4(C)[C@@]3(F)[C@@H](O)C[C@@]21C [Betamethasone valerate, betamethasone valerate]
- Gamma (γ) [1]: 0.94 ± 0.12
- Gamma (γ) [2]: 0.93 ± 0.07

Structure (SMILES): CCC(=O)OCC(=O)[C@@]1(OC(=O)CC)[C@@H](C)C[C@H]2[C@@H]3CCC4=CC(=O)C=C[C@]4(C)[C@@]3(F)[C@@H](O)C[C@@]21C [Betamethasone dipropionate, betamethasone dipropionate]
- Gamma (γ) [1]: 0.54 ± 0.06
- Gamma (γ) [2]: 0.52 ± 0.06

Structure (SMILES): C[C@@H]1C[C@H]2[C@@H]3C[C@H](F)C4=CC(=O)C=C[C@]4(C)[C@H]3[C@@H](O)C[C@]2(C)[C@H]1C(=O)COC(=O)C(C)(C)C [Fluocortolone 21-pivalate]
- Gamma (γ) [1]: 0.97 ± 0.30
- Gamma (γ) [2]: 0.94 ± 0.21

Structure (SMILES): CC1(C)O[C@@H]2C[C@H]3[C@@H]4C[C@H](F)C5=CC(=O)C=C[C@]5(C)[C@@]4(F)[C@@H](O)C[C@]3(C)[C@]2(C(=O)CO)O1 [Fluocinolone acetonide, fluocinolone acetonide]
- Gamma (γ) [1]: 0.75 ± 0.23
- Gamma (γ) [2]: 1.05 ± 0.14

Structure (SMILES): CCC(=O)OCC(=O)[C@@]1(OC(=O)CC)[C@H](C)C[C@H]2[C@H]3[C@H]([C@@H](O)C[C@@]21C)[C@@]1(C)C=CC(=O)C=C1C[C@H]3Cl [Alclometasone dipropionate]
- Gamma (γ) [1]: 0.67 ± 0.12
- Gamma (γ) [2]: 0.97 ± 0.26

Structure (SMILES): C[C@]12CCC(=O)C=C1CC[C@@H]1[C@@H]2[C@@H](O)C[C@@]2(C)[C@H]1CC[C@]2(O)C(=O)CO [Hydrocortisone, hydrocortisone]
- Gamma (γ) [1]: 0.96 ± 0.17
- Gamma (γ) [2]: 0.57 ± 0.26

Source: US20050267204A1, “Synergistic gold-containing compositions” (MEDICAL INNOVATIONS LIMITED, priority 1996, published 2005)
